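Vaccinia-infected cells with a two-color viral stage reporter; Venus fluorescence read on a plate reader; the cell line is not named here; timing not stated here.
The test concentration is not given here.
Percent change in Venus reporter signal; lower (more negative) values mean stronger inhibition of that viral stage.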

Values are in %.
How 0% and 100% were set is not given here.
Common to all entries: measured here: Venus reporter, other viral stage.
This is a side read-out of the assay, for part of the compounds, not drawn at random.

Compound,activity change (Venus) (%)
C[C@@H]1CN([C@@H](C)CO)C(=O)c2cccc(NS(=O)(=O)c3ccc(F)cc3)c2O[C@H]1CN(C)Cc1ccc(-c2ccccc2)cc1,-34.72
C[C@@H]1CCCCO[C@@H](CN(C)Cc2ccc(C(F)(F)F)cc2)[C@H](C)CN([C@H](C)CO)C(=O)c2cc(NC(=O)c3ccncc3)ccc2O1,-65.47
Cc1ccc(-c2ccc3c(c2)O[C@@H](CN(C)C(=O)CC2CC2)[C@H](C)CN([C@H](C)CO)S3(=O)=O)cc1,-33.22
O=C(c1cccc(F)c1)N1CCCCN2[C@H](CO)[C@H](c3ccc(-c4ccc(F)cc4)cc3)[C@H]2C1,-49.52
Cc1noc(C)c1NC(=O)Nc1ccc2c(c1)C(=O)N([C@H](C)CO)C[C@@H](C)[C@@H](CN(C)Cc1ccc(Cl)c(Cl)c1)OCCCC[C@H](C)O2,-54.24
N#Cc1cccc(-c2ccc([C@H]3[C@@H](CO)N4CCCCN(S(=O)(=O)c5ccccc5)C[C@H]34)cc2)c1,-35.42
O=C(C[C@@H]1CC[C@@H]2[C@H](COC[C@@H](O)CN2Cc2ccc(Oc3ccccc3)cc2)O1)N1CCCCC1,-31.53
C[C@@H]1CN([C@@H](C)CO)C(=O)c2c(c3ccccc3n2C)-c2ccccc2CO[C@H]1CN(C)Cc1ccc2c(c1)OCCN2C,-46.26
COc1ccc(CN(C)C[C@H]2Oc3ccc(NC(=O)Nc4ccc(C(F)(F)F)cc4)cc3C(=O)N([C@H](C)CO)C[C@H]2C)cc1,-41.56
Cc1ccc(S(=O)(=O)Nc2ccc3c(c2)C(=O)N([C@H](C)CO)C[C@H](C)[C@H](CN(C)Cc2ccncc2)OCCCC[C@H](C)O3)cc1,-33.19
O=C(C[C@@H]1C[C@@H]2c3cc(NS(=O)(=O)c4ccc(F)cc4)ccc3O[C@@H]2[C@@H](CO)O1)NCc1ccc(Oc2ccccc2)cc1,-71.24
C[C@H](NC(=O)C[C@@H]1CC[C@@H]2[C@H](COC[C@@H](O)CN2C(=O)Nc2cc(Cl)cc(Cl)c2)O1)c1ccccc1,-73.53
C[C@@H]1CN([C@@H](C)CO)C(=O)c2cccc(NC(=O)c3ccc(-c4nccs4)cc3)c2O[C@H]1CN(C)Cc1ccc2c(c1)OCO2,-34.8
Cn1cnc(S(=O)(=O)N2CCCCN3[C@H](CO)[C@@H](c4ccc(C#CC5CCCC5)cc4)[C@@H]3C2)c1,-38.14
C[C@@H]1CCCCO[C@@H](CN(C)C(=O)C2CCCCC2)[C@H](C)CN([C@H](C)CO)C(=O)c2cc(NS(=O)(=O)c3ccc(Cl)cc3)ccc2O1,-79.04
C[C@@H]1CN([C@@H](C)CO)S(=O)(=O)c2ccc(C#CC3CC3)cc2O[C@@H]1CN(C)Cc1ccccn1,-32.61
Cc1ccc(S(=O)(=O)N(C)C[C@H]2OCCCC[C@@H](C)Oc3ccc(NS(=O)(=O)c4ccccc4)cc3C(=O)N([C@H](C)CO)C[C@H]2C)cc1,-20.73
C[C@H]1CN([C@@H](C)CO)C(=O)c2c(c3ccccc3n2C)-c2ccccc2CO[C@@H]1CN(C)Cc1ccccc1C(F)(F)F,-60.19
COc1ccc(S(=O)(=O)Nc2ccc3c(c2)C(=O)N([C@@H](C)CO)C[C@H](C)[C@@H](CN(C)S(=O)(=O)c2c(C)noc2C)OCCCC[C@H](C)O3)cc1,-38.91
C[C@@H]1CN([C@H](C)CO)C(=O)c2c(c3ccccc3n2C)-c2ccccc2CO[C@H]1CN(C)Cc1ccc(Cl)c(Cl)c1,-39.79
C[C@@H]1CCCCO[C@H](CN(C)Cc2ccc(Cl)c(Cl)c2)[C@@H](C)CN([C@@H](C)CO)C(=O)c2cc(NC(=O)C3CCCCC3)ccc2O1,-34.17
Cc1ccc(S(=O)(=O)N2C[C@H](O)COC[C@H]3O[C@@H](CC(=O)NCc4ccc(Cl)c(Cl)c4)CC[C@@H]32)cc1,-43.05
CC(C)NC[C@@H]1[C@@H](c2ccc(C3=CCCCC3)cc2)[C@H](CO)N1C(=O)NC(C)C,-20.3
C[C@@H]1CN([C@H](C)CO)S(=O)(=O)c2ccc(C#Cc3ccccc3F)cc2O[C@H]1CN(C)C,-55.94
C[C@@H]1CN([C@@H](C)CO)C(=O)c2cc(C#Cc3ccccc3)cnc2O[C@@H]1CN(C)C(=O)CCN1CCCCC1,-40.67
O=C(Cc1ccccc1)N1CCCCN2[C@H](CO)[C@H](c3ccc(C#CC4(O)CCCC4)cc3)[C@H]2C1,-39.01
Cc1ccc(S(=O)(=O)Nc2ccc3c(c2)C(=O)N([C@@H](C)CO)C[C@@H](C)[C@H](CN(C)C(=O)C2CCCCC2)OCCCC[C@H](C)O3)cc1,-37.75
C[C@H](CO)N1C[C@H](C)[C@H](CN(C)S(=O)(=O)c2ccc(C#N)cc2)Oc2ncc(C#Cc3ccccc3)cc2C1=O,-47.13

The last 3 entries again:

| Compound | activity change (Venus) (%) |
|---|---|
| `O=C(Cc1ccccc1)N1CCCCN2[C@H](CO)[C@H](c3ccc(C#CC4(O)CCCC4)cc3)[C@H]2C1` | -39.01 |
| `Cc1ccc(S(=O)(=O)Nc2ccc3c(c2)C(=O)N([C@@H](C)CO)C[C@@H](C)[C@H](CN(C)C(=O)C2CCCCC2)OCCCC[C@H](C)O3)cc1` | -37.75 |
| `C[C@H](CO)N1C[C@H](C)[C@H](CN(C)S(=O)(=O)c2ccc(C#N)cc2)Oc2ncc(C#Cc3ccccc3)cc2C1=O` | -47.13 |

Source: PubChem BioAssay AID1053133 (Broad Institute, 2014).